Experiment: Endogenous plasma carnitine profiling by tandem mass spectrometry in CFS patients and healthy controls
Parameters: species or system human

Molecule	mean acylcarnitine concentration in CFS patients as % of that of the healthy controls [%]	mean acylcarnitine concentration in normal patients as % of that of the CFS patients [%]
palmitoleyl-L-carnitine [C16:1]	80.5	
hydroxy-oleyl-L-carnitine [C18:1-OH]		78.1
C[N+](C)(C)C[C@@H](CC(=O)[O-])OC(=O)CCCCCCCCCCC(=O)O [C12DC, dodecanedioyl-L-carnitine]		72.4
octenoyl-L-carnitine [C8:1]	74.2	
